No constants are given. Whether binding was seen depends on the method and setting. Binding seen in cells or lysates may run through a third protein. Some entries that bind do so weakly or less than the wild type.
Molecular target: c‐Myc (human (endogenous in BEL7402)) (UniProt P01106)
Experiment: proximity ligation; Duolink PLA mouse/rabbit kit on BEL7402 cells fixed with 4% paraformaldehyde and permeabilised with 0.1% Triton-X; primary antibodies for c-Myc and G9a overnight at 4 °C; single antibody controls; also G9a-depleted (shEHMT2) against non-targeting control cells, with reduced signal

By UniProt entry, the sequences of proteins in these tests, tags left out.
UniProt P01106: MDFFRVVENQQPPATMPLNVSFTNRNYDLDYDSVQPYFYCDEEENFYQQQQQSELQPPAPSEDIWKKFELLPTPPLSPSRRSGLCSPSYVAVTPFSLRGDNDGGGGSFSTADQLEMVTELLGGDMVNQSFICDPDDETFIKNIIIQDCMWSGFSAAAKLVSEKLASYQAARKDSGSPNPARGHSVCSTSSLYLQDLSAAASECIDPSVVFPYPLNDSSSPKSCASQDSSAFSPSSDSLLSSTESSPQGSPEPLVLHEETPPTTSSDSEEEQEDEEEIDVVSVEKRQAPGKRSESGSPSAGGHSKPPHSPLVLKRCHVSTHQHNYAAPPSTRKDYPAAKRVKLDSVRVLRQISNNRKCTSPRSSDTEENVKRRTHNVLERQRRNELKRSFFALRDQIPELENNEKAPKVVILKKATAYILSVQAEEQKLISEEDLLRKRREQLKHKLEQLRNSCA
UniProt Q96KQ7: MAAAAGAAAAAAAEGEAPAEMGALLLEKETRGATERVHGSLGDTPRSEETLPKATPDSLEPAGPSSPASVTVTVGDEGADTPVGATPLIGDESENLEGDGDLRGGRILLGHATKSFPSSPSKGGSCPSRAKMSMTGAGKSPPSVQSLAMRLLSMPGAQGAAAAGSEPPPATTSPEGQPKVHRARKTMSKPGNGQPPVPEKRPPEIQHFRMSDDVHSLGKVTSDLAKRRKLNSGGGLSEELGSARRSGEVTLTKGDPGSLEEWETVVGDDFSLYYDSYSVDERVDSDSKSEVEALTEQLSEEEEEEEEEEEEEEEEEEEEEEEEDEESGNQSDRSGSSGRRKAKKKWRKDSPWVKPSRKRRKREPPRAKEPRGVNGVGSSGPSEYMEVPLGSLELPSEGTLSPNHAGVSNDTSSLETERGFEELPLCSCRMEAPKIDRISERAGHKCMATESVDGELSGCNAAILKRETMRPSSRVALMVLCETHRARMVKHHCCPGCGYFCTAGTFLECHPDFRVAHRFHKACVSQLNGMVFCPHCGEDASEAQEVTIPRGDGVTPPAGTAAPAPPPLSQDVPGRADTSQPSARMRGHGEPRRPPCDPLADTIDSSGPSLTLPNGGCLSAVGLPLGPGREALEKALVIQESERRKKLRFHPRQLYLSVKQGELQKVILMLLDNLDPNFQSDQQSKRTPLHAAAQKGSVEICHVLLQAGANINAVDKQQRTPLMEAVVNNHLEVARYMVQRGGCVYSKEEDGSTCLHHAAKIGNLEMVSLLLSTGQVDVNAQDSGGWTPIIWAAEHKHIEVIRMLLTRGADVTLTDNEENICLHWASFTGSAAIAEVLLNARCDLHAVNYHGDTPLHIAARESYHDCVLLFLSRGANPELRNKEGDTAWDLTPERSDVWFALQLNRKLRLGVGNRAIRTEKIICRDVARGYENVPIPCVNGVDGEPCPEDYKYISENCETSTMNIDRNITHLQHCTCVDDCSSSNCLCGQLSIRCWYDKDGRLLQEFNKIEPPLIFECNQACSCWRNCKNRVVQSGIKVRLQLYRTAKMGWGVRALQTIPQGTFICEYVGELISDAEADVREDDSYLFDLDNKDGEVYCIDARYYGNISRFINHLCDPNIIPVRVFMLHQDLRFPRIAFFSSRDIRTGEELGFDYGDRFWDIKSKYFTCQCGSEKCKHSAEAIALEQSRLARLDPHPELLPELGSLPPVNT

## Histone‐lysine N‐methyltransferase EHMT2 (G9a) (from UniProt Q96KQ7 1-1210)
  binding: binds
